In all, about 410,000 compounds went through this assay and about 2,000 (0.49%) were called active. Inconclusive means that the source gave no clear call. Such entries were picked first, then a sample of the others. The call rests on the fitted dose curve; tested in HEK293 reporter line. A potency beside an inconclusive call is a rough fit, not a confirmed value.
assay: qHTS Assay for Foot and Mouth Disease Virus Antivirals: Primary Screen against the MLPCN compound library; settings: FMDV antiviral cell-based qHTS; activity, negative = inhibition: at 57.9 µM (top of the series); further: nearly all actives have a fitted effect of over 55% in size
Potency means the concentration at half of the fitted maximal effect.

SMILES | Potency | activity, negative = inhibition
Cc1cccc(NC(=O)c2cccc(N3C(=O)C4C5C=CC(C6CC56)C4C3=O)c2)c1 (centres undefined) | inconclusive: 15.8 µM [inhibitor, partial curve, poor fit] | 
COc1ccc(/C=N/Nc2cc(OC)ncn2)cc1 | inconclusive: 17.8 µM [inhibitor, single point] | 
O=C(Nc1ccnn1C1CCN(CCCC2CCCC2)CC1)c1ccccc1 | inconclusive: 10 µM [inhibitor, partial curve, poor fit] | 
Cc1ccn2c(/C=N/OCc3cccc(F)c3)c(-c3ccc(Cl)cc3)nc2c1 | inactive | 
O=C1ON=C(c2ccccc2)/C1=C/c1ccco1 | inconclusive: 31.6 µM [inhibitor, partial curve, poor fit] | 
CCc1nnc(NC(=O)C2CC(=O)N(C3CCCCC3)C2)s1 (centres undefined) | inconclusive: 1.26 µM [inhibitor, full curve] | 
CC1C/C(=N/Nc2ccc([N+](=O)[O-])cc2[N+](=O)[O-])CC(C)(C)C1 (centres undefined) | inactive | 
Cc1cc(C(=O)N/N=C/c2ccc(-c3cccc(Cl)c3)o2)n[nH]1 | inconclusive: 2.24 µM [inhibitor, full curve] | 
COc1ccc(/C(O)=C2/C(=O)C(=O)N(CCCN3CCOCC3)C2c2ccc(OC)cc2)cc1 (centres undefined) | inconclusive: 8.91 µM [inhibitor, partial curve] | 
Cc1sc2cc3c(c(C(=O)c4ccccc4)[n+]2c1C)-c1cccc2cccc-3c12 | inconclusive: 14.1 µM [inhibitor, partial curve, poor fit] | 
CCN(CC)S(=O)(=O)c1cc(-c2nnc(Nc3ccc(OC)c(C(N)=O)c3)c3ccccc23)ccc1C | inactive | 
CNS(=O)(=O)c1cccc(C(=O)OCC(=O)Nc2ccc(-c3nc4ccc(C)cc4s3)cc2)c1 | inconclusive: 15.8 µM [inhibitor, single point] | 
COc1ccc(OC)c(NC(=O)CSCc2cnn(-c3ccccc3)c2-n2cccc2)c1 |  | inconclusive: -39.3% [inhibitor]
O=C(Nc1nccs1)C12CC3CC(C1)CC(C(=O)Nc1nccs1)(C3)C2 | inconclusive: 25.1 µM [inhibitor, partial curve, poor fit] | 
COc1ccc(-c2ccc(C(=O)N3CCN(C)CC3)c3occc23)c(C)c1 | inactive | 
CC(NC(=O)CN(C)CC(=O)Nc1ccccc1Br)c1ccccc1 (centres undefined) | inconclusive: 7.94 µM [inhibitor, partial curve] | 
c1csc(-c2nc(CN3CCSCC3)cs2)c1 | inconclusive: 22.4 µM [inhibitor, single point] | 
Cc1cc(C)n2cc(CSc3nnc(-c4ccccc4)c(-c4ccccc4)n3)nc2n1 | inconclusive: 28.2 µM [inhibitor, partial curve, poor fit] | 
CCN1C(=O)C(=Cc2ccc(C)s2)C(=O)N(CC)C1=S | inconclusive: 39.8 µM [inhibitor, partial curve, poor fit] | 
CN(C)S(=O)(=O)c1ccc(C(=O)Nc2ccnn2C2CCCCC2)cc1 | inconclusive: 28.2 µM [inhibitor, partial curve, poor fit] | 

Entries listed so far containing a thiophene ring, fused or not (two):
SMILES | Potency | activity, negative = inhibition
c1csc(-c2nc(CN3CCSCC3)cs2)c1 | inconclusive: 22.4 µM [inhibitor, single point] | 
CCN1C(=O)C(=Cc2ccc(C)s2)C(=O)N(CC)C1=S | inconclusive: 39.8 µM [inhibitor, partial curve, poor fit] | 

More records.

SMILES | Potency | activity, negative = inhibition
COc1cc(/C=C2\SC(=S)N(CC(=O)NC(C)(C)C)C2=O)cc(OC)c1OC | inactive | 
CC(C)CNc1nc(Oc2ccc(OCC(N)=O)nn2)nc(N2CCOCC2)n1 | inconclusive: 8.91 µM [inhibitor, partial curve] | 
CCOC(=O)c1cc(-c2ccccc2)n(CCC(=O)Nc2ccc(Cl)c(C(F)(F)F)c2)c1C | inconclusive: 39.8 µM [inhibitor, single point] | 
Clc1ccc(CN=C(Nc2ccccc2)NC2CCCCC2)cc1 | inconclusive: 14.1 µM [inhibitor, partial curve] | 
CN(C)S(=O)(=O)c1ccc(C(=O)Nc2ccccc2OC(F)(F)C(F)F)cc1 | inconclusive: 20 µM [inhibitor, partial curve, poor fit] | 
Cc1ccccc1N=CC1=C(O)c2ccccc2C1=O | inconclusive: 8.91 µM [inhibitor, full curve, poor fit] | 
Cc1cccc(-c2c3c(=O)n(C)c(=O)n(C)c3cn2-c2cc(N)c(Cl)cc2Cl)c1 | inconclusive: 14.1 µM [inhibitor, partial curve, poor fit] | 
Cc1oc(-c2cccc3ccccc23)nc1CN1CCN(c2ncnc3ccccc23)CC1 | inconclusive: 15.8 µM [inhibitor, partial curve, poor fit] | 
CCC1NC(=O)c2cc3ccccc3cc2-n2c1nc1cc(C)cc(C)c1c2=O (centres undefined) | inconclusive: 28.2 µM [inhibitor, partial curve, poor fit] | 
Cc1cc(-c2ccc(C)c(S(=O)(=O)N(C)c3ccc(C)c(C)c3)c2)on1 | inconclusive: 39.8 µM [inhibitor, partial curve, poor fit] | 
Cc1ccccc1S(=O)(=O)N1[C@@H](c2cccc(Cl)c2)C(C(=O)OC(C)(C)C)=CC[C@H]1c1ccc(Cl)cc1 | inconclusive: 14.1 µM [inhibitor, partial curve] | 
C=C1C(=O)O[C@@H]2[C@H]3O[C@]3(C)CC/C=C(\C)CC[C@@H]12 | inconclusive: 31.6 µM [inhibitor, single point] | 
O=C(c1ccccc1)N1CCOC12CCN(c1ncc(C(F)(F)F)cc1Cl)CC2 | inconclusive: 15.8 µM [inhibitor, partial curve, poor fit] | 
COC(=O)[C@@H]1C[C@]2(OC(=O)c3ccccc3)C=CC(=O)C[C@@H]2N1C(=O)OCc1ccccc1 | inconclusive: 22.4 µM [inhibitor, partial curve, poor fit] | 
CC(NC(=O)c1cccc(S(=O)(=O)N2CCN(Cc3ccccc3)CC2)c1)c1ccc(Cl)cc1 (centres undefined) | inconclusive: 15.8 µM [inhibitor, partial curve, poor fit] | 
CC(=O)N1CCc2c(sc(NC(=O)C3CCCN3S(=O)(=O)c3cccs3)c2C(N)=O)C1 (centres undefined) | inconclusive: 28.2 µM [inhibitor, single point] | 
COc1ccc(/C=C/C(=O)c2cc(F)ccc2OC(=O)c2ccccc2)cc1OC | inconclusive: 28.2 µM [inhibitor, partial curve, poor fit] | 
CC(C)(C)NC(=O)COC(=O)c1c2c(nc3ccccc13)CCC2 | inconclusive: 12.6 µM [inhibitor, partial curve, poor fit] | 
CC(C)(C)c1ccc(C(=O)O/N=C(\N)c2ccccc2)cc1 | inactive | 
CCCC(=O)Nc1cccc(NC(=O)c2cccc([N+](=O)[O-])c2C)c1 | inactive | 

A draw from above in order of formula weight, low to high:
SMILES | Potency | activity, negative = inhibition
Cc1oc(-c2cccc3ccccc23)nc1CN1CCN(c2ncnc3ccccc23)CC1 | inconclusive: 15.8 µM [inhibitor, partial curve, poor fit] | 
CC(=O)N1CCc2c(sc(NC(=O)C3CCCN3S(=O)(=O)c3cccs3)c2C(N)=O)C1 (centres undefined) | inconclusive: 28.2 µM [inhibitor, single point] | 
CC(NC(=O)c1cccc(S(=O)(=O)N2CCN(Cc3ccccc3)CC2)c1)c1ccc(Cl)cc1 (centres undefined) | inconclusive: 15.8 µM [inhibitor, partial curve, poor fit] | 

Further compounds follow:

SMILES | Potency | activity, negative = inhibition
O=C(C1CCN(C2CCN(Cc3ccc4cc(F)ccc4n3)CC2)CC1)N1CCCC1 | inconclusive: 4.47 µM [inhibitor, partial curve] | 
CN(Cc1cccc2ncccc12)C(=O)c1cnn(-c2nccc(-c3ccccc3F)n2)c1C1CC1 | inconclusive: 3.98 µM [inhibitor, full curve, poor fit] | 
O=S(=O)(CC(CN1CCCCC1)N1CCCCC1)c1ccccc1 (centres undefined) | inconclusive: 35.5 µM [inhibitor, partial curve, poor fit] | 
O=C(OC(C(=O)Nc1ccc(Cl)cc1C(F)(F)F)c1ccccc1)c1c(Cl)cccc1Cl (centres undefined) | inactive | 
CCOC(=O)CC1(C)NC(C(=O)O)C(C)(C)S1 (centres undefined) | inactive | 
Cc1ccc(/C=C/C(O)=C2/C(=O)N(C)C3(C)CC2c2ccccc2O3)cc1 (centres undefined) | inconclusive: 14.1 µM [inhibitor, partial curve, poor fit] | 
CCOC(=O)c1c(C)[nH]c(C(=O)OCC(=O)Nc2sccc2C(N)=O)c1C | inconclusive: 15.8 µM [inhibitor, partial curve, poor fit] | 
O=C(/C=C/c1ccccc1)c1ccc(NC2=NCCCS2)cc1 | inconclusive: 39.8 µM [inhibitor, single point] | 
O=Cc1cc(N=Nc2cccc(C(=O)O)c2)ccc1O | inconclusive: 20 µM [inhibitor, single point] | 
O=C(Nc1ccc2c(c1)OCCO2)c1cccc2nc3ccccc3nc12 | inactive | 
O=C(CSCc1nc2ccccc2[nH]1)N1CCN(c2ccc(F)cc2)CC1 | inconclusive: 35.5 µM [inhibitor, partial curve, poor fit] | 
COc1cc(/C=C2\CC/C(=C\c3ccc(OCCO)c(OC)c3)C2=O)ccc1OCCO | inconclusive: 35.5 µM [inhibitor, partial curve, poor fit] | 
Cc1[nH]n(-c2ccccc2)c(=O)c1/C=N/N1C(=O)c2cccc3cccc(c23)C1=O | inconclusive: 17.8 µM [inhibitor, partial curve, poor fit] | 
CC(C)CCN1CCC(CN2C(=O)C(=O)NC[C@@H]2CC(C)C)CC1 | inconclusive: 3.55 µM [inhibitor, full curve] | 
CCN1CCN(Cc2ccc(NC(=O)c3ccc(C)c(NC(=O)c4ccno4)c3)cc2C(F)(F)F)CC1 | inconclusive: 14.1 µM [inhibitor, partial curve, poor fit] | 
CC(C)c1ccc(/C=C/c2[nH]c(=O)[nH]c(=O)c2[N+](=O)[O-])cc1 | inconclusive: 39.8 µM [inhibitor, partial curve, poor fit] | 
CCN1C(=O)[C@@H]2[C@@H](c3ccc(SC4CCCCC4)cc3)N3CCC[C@@]3(C(=O)OC)[C@@H]2C1=O | inconclusive: 15.8 µM [inhibitor, partial curve, poor fit] | 
CCOC(=O)c1sc(=S)n(C)c1NC(=O)c1ccccc1 | inactive | 
Oc1ccc(CCNc2ncnc3ccc(Cl)cc23)cc1 | inconclusive: 10 µM [inhibitor, partial curve, poor fit] | 
